These are literature values, as cited in patent US20080125456A1, “Injection of Tacrolimus” (Chong Kun Dang Pharmaceutical Corporation, priority 2004, published 2008).

With `C=CC[C@@H]1/C=C(\C)C[C@H](C)C[C@H](OC)[C@H]2O[C@@](O)(C(=O)C(=O)N3CCCC[C@H]3C(=O)O[C@H](/C(C)=C/[C@@H]3CC[C@@H](O)[C@H](OC)C3)[C@H](C)[C@@H](O)CC1=O)[C@H](C)C[C@@H]2OC` [Tacrolimus, 17-allyl-1,14-dihydroxy-12-[2-(4-hydroxy-3-methoxycyclohexyl)-1-methylvinyl]-23,2 5-dimethoxy-13,19,21,27-tetramethyl-11,28-dioxy-4-azatricyclo[22.3. 1.0.^4.9]octacos-1 8-ene-2,3,10,16-tetraone], the “Solubility in an organic solvent” value (organic solvent (for example, methanol, ethanol or acetone)) is listed as “well dissolved”. For the same compound, for the setting “water”, the Solubility in water entry is on record as “practically insoluble”.
